Results are given in words; binding and its absence hold for the method and conditions named. Binding seen in cells or lysates may run through a third protein. Some binding calls cover weakened binding; strength is not graded here.
What was measured:
[1] = target: PCF11 (termination factor), endogenous (human (endogenous in HeLa)) (UniProt O94913); assay: co-IP; reciprocal immunoprecipitation of endogenous PCF11 and WNK1 from HeLa nuclear extracts; 150 mM or 250 mM NaCl; 150 mM NaCl after benzonase; mock IP with rabbit IgG; Western blot
[2] = target: WNK1 (with no lysine [K] 1) kinase, endogenous (human (endogenous in HeLa)) (UniProt Q9H4A3); assay: as above

By UniProt entry, the sequences of proteins in these tests, tags left out. Where a name states a change or a piece, a line headed by the entry shows the natural chain unless it says otherwise.
UniProt O94913: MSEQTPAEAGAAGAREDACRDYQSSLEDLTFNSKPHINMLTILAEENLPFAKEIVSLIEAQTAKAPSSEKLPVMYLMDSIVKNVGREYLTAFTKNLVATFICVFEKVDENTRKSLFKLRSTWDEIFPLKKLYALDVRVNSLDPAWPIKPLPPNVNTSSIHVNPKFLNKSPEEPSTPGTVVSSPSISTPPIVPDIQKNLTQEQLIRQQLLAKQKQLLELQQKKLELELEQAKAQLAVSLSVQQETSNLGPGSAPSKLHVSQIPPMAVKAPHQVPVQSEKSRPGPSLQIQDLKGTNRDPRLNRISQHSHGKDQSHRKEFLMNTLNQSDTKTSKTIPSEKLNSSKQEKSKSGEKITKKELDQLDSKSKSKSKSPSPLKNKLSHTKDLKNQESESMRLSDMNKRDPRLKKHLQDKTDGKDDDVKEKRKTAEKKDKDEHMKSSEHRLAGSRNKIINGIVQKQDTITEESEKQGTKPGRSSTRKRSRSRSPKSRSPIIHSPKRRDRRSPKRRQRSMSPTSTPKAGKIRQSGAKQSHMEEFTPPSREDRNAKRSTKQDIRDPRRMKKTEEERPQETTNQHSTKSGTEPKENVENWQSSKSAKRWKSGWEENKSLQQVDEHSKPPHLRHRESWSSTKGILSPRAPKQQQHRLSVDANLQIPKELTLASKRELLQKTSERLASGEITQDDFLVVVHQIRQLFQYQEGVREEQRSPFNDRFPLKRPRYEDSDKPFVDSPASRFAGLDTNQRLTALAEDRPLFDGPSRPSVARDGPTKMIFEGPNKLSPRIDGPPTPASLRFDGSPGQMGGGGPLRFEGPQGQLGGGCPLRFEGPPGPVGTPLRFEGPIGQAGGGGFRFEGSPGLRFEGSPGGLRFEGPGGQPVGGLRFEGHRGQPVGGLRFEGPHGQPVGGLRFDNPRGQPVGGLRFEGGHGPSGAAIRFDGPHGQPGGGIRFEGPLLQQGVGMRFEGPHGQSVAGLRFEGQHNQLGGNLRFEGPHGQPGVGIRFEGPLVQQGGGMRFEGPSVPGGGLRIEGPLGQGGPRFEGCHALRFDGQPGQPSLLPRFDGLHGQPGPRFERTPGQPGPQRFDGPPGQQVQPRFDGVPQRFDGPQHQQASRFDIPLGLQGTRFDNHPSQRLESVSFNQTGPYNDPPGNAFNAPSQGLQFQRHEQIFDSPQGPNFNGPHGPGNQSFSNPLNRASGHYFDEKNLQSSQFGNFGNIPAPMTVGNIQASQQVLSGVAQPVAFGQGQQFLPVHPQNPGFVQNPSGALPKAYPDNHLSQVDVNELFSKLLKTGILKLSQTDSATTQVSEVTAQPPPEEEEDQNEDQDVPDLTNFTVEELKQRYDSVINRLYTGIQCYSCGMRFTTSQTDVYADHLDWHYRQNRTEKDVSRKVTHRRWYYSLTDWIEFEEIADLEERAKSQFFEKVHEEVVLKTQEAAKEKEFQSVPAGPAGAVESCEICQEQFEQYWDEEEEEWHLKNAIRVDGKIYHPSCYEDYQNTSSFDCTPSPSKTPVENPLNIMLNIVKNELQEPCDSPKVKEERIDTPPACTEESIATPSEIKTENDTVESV
UniProt Q9H4A3: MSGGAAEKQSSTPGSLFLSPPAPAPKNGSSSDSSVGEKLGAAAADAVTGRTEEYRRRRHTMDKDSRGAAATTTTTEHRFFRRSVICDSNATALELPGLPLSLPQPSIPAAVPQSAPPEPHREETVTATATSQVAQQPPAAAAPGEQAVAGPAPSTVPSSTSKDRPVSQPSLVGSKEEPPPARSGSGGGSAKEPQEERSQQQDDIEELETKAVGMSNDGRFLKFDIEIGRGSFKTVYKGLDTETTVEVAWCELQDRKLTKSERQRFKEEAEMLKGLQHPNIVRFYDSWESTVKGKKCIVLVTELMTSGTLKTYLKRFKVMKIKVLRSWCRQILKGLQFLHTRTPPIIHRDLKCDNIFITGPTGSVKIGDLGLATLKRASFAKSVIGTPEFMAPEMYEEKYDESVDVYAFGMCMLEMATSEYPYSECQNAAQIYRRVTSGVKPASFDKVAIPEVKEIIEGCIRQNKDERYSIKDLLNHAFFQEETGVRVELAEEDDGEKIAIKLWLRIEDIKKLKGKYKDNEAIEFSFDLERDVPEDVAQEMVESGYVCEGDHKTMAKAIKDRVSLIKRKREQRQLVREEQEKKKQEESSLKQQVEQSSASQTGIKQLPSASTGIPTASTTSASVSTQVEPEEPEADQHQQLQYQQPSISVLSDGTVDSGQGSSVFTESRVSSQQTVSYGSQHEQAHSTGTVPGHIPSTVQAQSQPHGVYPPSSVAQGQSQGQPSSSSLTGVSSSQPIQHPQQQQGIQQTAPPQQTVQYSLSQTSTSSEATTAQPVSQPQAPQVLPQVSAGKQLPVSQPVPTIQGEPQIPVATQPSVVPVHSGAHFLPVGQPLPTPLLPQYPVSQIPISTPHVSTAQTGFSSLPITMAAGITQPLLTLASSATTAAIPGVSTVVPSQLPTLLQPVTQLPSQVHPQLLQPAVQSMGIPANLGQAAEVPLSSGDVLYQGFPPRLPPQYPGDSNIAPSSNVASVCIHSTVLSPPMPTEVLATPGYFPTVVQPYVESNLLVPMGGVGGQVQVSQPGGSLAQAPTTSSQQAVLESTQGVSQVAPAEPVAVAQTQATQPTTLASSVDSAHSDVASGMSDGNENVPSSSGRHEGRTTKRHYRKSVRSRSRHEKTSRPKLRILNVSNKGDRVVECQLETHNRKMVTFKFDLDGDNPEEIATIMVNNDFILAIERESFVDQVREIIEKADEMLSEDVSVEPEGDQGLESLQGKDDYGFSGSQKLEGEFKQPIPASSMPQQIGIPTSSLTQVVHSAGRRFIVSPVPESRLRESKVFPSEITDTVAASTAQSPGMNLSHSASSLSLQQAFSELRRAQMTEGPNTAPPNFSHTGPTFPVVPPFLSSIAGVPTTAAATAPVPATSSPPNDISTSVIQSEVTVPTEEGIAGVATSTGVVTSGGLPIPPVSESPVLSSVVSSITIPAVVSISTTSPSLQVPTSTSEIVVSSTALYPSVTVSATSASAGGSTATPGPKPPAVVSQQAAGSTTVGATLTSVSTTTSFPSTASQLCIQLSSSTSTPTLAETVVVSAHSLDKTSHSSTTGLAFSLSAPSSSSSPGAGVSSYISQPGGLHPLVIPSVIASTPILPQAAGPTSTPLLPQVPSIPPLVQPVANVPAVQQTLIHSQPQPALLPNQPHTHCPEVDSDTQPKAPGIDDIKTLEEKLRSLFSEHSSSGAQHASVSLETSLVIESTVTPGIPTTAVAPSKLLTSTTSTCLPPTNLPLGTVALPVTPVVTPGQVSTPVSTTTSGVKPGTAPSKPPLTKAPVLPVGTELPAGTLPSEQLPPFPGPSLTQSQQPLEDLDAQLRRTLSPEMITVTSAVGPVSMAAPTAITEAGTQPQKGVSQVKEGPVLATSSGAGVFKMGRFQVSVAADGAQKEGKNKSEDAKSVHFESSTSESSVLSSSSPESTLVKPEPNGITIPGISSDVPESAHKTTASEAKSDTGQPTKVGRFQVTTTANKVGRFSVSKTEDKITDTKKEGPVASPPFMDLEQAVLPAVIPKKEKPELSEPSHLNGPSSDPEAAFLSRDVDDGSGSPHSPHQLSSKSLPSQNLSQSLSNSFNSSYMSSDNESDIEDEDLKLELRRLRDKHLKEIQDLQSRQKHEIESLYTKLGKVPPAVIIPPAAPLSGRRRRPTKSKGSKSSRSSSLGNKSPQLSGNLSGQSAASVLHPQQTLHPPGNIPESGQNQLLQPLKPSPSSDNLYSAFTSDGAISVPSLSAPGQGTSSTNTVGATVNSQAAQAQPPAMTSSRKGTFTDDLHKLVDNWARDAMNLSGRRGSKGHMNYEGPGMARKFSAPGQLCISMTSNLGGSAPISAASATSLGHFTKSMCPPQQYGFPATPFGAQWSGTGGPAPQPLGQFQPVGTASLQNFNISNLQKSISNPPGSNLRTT

| binding [1] | binding [2] | Substance |
| --- | --- | --- |
| binds weakly | – | WNK1 (with no lysine [K] 1) kinase, endogenous (from UniProt Q9H4A3-1 1-2382) (enzyme) |
| – | binds weakly | PCF11 (termination factor), endogenous (from UniProt O94913 1-1555) |
